Experimental data as given in the supplement of paper PMC10849652.
Some of the results follow.

Protein sequences, listed by entry. Tags and fused reporters are not part of them. Lines headed by an entry give the natural chain unless they say otherwise; changes in a name come on top.
UniProt Q9UP38, whole entry, looked up: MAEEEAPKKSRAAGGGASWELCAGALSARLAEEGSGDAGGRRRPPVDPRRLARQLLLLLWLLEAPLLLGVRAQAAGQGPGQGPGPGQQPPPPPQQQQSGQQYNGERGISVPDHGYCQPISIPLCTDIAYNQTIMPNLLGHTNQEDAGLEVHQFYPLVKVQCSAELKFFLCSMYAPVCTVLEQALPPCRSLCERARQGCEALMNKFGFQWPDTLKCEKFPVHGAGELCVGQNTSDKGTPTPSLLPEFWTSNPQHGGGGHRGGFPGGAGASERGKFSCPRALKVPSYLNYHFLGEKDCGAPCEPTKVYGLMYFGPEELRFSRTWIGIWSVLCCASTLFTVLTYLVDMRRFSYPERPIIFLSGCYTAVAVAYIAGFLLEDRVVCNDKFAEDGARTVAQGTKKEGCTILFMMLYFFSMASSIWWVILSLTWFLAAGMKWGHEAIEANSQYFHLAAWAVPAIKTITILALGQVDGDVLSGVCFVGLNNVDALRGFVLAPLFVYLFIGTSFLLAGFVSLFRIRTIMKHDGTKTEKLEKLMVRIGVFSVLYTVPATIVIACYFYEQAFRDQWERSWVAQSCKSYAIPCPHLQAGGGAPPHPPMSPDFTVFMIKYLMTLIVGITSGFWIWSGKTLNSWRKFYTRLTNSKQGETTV
UniProt Q9UET6: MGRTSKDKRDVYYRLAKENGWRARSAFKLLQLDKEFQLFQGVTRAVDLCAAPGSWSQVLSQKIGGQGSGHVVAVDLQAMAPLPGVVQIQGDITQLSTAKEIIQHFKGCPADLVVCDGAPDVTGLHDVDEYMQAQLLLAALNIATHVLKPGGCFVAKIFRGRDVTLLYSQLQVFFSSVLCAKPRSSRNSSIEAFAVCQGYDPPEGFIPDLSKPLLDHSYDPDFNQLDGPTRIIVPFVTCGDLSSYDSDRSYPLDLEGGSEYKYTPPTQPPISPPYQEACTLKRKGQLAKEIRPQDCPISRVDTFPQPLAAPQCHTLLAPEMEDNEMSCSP
UniProt A2VDF0: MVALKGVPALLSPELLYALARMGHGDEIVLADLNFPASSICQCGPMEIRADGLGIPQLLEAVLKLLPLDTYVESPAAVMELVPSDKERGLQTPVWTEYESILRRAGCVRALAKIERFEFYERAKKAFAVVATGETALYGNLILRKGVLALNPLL
UniProt Q14393: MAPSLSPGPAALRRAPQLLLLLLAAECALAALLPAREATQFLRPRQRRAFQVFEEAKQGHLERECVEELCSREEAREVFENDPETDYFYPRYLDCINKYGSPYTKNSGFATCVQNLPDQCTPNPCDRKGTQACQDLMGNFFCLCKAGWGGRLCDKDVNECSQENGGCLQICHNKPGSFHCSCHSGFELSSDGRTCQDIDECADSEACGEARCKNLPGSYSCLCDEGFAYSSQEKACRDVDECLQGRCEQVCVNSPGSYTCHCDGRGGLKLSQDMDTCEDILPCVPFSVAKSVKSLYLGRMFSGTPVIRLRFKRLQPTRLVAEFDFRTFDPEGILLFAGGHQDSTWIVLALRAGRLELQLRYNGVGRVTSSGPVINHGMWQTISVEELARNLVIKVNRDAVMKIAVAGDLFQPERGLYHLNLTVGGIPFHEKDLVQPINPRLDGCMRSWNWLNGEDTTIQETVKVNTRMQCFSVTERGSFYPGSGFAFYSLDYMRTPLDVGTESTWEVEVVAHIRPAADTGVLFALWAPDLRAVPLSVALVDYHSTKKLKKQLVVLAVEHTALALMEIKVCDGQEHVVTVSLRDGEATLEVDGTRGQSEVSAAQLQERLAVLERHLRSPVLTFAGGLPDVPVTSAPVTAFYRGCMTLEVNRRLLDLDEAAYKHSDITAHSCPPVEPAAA
UniProt Q9NWZ8: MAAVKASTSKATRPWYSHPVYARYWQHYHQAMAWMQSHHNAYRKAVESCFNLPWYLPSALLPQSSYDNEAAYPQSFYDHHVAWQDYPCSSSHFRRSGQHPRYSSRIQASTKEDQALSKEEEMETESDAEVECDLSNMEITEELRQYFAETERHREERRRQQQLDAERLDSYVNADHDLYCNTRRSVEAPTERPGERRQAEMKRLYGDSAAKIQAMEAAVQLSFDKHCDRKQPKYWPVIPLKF
UniProt Q5JV73, whole entry, looked up: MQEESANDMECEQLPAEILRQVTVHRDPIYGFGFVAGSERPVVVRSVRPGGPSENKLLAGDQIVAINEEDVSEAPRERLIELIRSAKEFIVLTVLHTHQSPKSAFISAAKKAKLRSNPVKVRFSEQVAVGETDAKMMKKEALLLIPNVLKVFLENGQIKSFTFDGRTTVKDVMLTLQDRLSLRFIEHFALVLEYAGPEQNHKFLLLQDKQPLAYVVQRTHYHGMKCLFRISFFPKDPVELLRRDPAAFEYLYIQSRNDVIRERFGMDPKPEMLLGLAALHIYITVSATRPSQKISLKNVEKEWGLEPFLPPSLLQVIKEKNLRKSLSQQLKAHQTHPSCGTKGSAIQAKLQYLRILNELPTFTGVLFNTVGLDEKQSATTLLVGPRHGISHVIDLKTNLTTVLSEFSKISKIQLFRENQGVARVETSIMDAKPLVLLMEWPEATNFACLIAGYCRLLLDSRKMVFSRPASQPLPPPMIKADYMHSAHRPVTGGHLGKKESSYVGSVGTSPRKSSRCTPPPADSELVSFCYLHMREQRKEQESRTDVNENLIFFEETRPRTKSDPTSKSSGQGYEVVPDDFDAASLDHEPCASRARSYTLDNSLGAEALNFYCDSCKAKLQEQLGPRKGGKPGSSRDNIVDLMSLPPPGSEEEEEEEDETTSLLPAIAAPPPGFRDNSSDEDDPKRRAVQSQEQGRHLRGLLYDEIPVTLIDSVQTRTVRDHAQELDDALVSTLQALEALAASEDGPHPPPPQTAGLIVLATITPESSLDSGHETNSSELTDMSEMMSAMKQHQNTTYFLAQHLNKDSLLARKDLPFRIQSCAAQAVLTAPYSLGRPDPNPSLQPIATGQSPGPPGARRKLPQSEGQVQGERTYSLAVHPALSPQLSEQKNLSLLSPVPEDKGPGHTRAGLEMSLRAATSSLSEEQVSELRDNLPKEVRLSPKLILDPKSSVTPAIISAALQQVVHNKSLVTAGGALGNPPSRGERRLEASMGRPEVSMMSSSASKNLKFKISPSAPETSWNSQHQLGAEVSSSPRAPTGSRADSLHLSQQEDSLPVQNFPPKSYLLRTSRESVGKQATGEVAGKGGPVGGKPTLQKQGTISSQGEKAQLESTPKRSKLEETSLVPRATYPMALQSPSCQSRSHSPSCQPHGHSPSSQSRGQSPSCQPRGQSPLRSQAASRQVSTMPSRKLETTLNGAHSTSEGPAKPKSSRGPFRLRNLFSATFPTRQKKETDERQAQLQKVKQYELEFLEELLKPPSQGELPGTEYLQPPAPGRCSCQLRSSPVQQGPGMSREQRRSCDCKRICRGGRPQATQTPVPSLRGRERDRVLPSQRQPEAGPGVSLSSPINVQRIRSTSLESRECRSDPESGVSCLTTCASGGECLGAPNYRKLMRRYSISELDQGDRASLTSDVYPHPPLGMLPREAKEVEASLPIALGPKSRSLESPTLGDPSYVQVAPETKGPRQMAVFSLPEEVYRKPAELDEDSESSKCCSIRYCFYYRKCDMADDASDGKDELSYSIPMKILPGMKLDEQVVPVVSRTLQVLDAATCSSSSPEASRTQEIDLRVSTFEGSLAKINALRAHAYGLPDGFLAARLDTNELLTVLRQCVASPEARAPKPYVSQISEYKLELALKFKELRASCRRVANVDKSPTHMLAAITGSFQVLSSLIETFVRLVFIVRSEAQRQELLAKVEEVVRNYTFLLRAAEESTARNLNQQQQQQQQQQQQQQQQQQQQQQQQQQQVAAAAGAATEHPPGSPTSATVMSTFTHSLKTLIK
UniProt Q9BZ67: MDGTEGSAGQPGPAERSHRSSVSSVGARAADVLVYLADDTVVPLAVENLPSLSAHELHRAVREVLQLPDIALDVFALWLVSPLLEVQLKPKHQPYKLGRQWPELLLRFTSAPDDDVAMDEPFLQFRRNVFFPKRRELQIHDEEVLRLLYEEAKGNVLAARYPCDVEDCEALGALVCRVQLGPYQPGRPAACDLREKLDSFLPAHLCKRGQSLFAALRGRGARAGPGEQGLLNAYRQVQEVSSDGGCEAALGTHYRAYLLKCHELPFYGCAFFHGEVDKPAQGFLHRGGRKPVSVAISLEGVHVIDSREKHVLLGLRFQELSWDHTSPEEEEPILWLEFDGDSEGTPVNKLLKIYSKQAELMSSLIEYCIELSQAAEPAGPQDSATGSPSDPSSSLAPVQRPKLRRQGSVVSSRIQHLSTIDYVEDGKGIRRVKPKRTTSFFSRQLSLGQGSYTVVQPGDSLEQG
UniProt Q3B7J2: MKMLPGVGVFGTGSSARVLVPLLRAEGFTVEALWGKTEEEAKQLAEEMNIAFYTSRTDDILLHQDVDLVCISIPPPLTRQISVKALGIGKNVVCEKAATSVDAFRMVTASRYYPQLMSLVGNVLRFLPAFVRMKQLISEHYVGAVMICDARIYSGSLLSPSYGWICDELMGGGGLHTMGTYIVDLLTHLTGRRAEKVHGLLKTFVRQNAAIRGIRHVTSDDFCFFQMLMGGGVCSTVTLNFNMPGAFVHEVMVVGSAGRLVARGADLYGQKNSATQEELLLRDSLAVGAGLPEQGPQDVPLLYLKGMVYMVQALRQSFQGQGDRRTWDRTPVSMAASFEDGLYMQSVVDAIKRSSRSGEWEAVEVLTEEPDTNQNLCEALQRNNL
UniProt Q9P0K8: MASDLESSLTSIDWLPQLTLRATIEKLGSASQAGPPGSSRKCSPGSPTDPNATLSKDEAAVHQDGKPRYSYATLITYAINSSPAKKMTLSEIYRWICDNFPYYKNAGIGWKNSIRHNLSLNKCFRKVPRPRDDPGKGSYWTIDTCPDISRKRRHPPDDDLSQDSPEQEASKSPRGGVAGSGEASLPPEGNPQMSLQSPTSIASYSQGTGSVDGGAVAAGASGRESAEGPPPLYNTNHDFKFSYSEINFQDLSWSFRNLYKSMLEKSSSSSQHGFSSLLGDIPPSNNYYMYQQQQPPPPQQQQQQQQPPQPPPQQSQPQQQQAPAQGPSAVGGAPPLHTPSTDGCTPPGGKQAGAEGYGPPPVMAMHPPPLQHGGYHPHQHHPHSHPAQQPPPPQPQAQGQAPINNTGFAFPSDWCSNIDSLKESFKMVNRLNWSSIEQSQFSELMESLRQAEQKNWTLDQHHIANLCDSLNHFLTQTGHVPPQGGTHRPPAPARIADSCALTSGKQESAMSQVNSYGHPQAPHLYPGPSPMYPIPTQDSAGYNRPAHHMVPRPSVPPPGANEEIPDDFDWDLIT
UniProt Q96QD9: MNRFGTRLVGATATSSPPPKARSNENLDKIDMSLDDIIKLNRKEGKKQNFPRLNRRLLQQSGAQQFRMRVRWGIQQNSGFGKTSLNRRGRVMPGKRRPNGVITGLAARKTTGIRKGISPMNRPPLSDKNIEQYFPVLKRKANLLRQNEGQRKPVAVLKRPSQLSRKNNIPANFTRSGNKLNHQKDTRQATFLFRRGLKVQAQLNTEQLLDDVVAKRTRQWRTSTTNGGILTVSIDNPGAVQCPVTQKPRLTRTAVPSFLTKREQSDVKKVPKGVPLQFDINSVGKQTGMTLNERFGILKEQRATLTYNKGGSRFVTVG
UniProt O43716: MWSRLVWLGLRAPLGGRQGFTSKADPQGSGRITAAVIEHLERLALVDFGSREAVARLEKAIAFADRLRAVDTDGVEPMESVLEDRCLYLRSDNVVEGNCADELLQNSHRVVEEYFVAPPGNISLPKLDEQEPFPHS
UniProt P27469: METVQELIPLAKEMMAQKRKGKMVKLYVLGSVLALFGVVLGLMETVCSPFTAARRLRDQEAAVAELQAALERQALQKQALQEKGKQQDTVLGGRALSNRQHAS
UniProt Q6P4F1: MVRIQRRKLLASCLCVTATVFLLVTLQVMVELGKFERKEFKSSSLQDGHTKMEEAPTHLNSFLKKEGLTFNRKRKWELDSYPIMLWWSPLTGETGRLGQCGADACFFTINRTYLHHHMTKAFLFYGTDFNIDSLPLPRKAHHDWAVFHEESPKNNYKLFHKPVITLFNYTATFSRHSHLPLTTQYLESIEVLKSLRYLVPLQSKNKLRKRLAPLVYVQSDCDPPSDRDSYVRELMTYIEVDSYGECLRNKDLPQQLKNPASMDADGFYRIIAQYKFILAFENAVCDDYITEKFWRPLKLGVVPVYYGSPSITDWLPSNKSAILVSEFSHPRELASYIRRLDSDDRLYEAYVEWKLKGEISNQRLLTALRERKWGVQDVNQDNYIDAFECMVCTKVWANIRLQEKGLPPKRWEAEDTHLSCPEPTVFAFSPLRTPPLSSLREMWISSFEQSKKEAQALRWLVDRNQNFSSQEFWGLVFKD
UniProt Q99988: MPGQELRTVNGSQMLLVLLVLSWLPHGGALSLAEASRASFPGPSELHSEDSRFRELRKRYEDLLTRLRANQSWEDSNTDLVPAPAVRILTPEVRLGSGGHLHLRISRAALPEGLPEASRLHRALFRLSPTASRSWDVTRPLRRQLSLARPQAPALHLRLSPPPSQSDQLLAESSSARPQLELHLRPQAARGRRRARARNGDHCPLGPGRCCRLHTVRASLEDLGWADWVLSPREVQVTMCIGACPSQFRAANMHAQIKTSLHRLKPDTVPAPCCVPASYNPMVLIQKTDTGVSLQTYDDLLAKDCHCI

Columns and labels:
Experiment in all cases: log2 fold change, soluble protein after heating vs DMSO (PISA); higher = thermal stabilisation; K562 cells, 10 uM, 30 min; active = over 0.2 and 3.5 SD of the protein, either way, in both replicates (recomputed)
[1] = compound: NC(=O)Nc1cc(-c2cccc(F)c2)sc1C(=O)N[C@H]1CCCNC1
In short: (§1)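 For each measurement, 10 μM compound was applied for 30 min to K562 cells at 2×10^6 cells/mL. Aliquots were heated for 3 min across 48°C-58°C, pooled, and extracted in PBS with 0.5% NP-40 at 4°C; the supernatant after 21,000xg for 90 min was soluble protein. This was quantified by TMTpro 16plex LC-MS/MS with channel sums equalised, and thermal stability was reported relative to control samples from duplicates, on a log2 fold-change scale.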

[2] = compound: NCC(=O)Nc1ccc(-n2nc(C(F)(F)F)cc2-c2ccc3c(ccc4ccccc43)c2)cc1
In short: as §1

entinostat = compound: Nc1ccccc1NC(=O)c1ccc(CNC(=O)OCc2cccnc2)cc1 [entinostat]
In short: as §1

[3] = compound: O=C1NC(=O)C(c2cnc3ccccn23)=C1c1cn2c3c(cc(F)cc13)CN(C(=O)N1CCCCC1)CC2
In short: as §1

[4] = compound: NC(=O)c1cnc(N[C@@H]2CCCC[C@@H]2N)nc1Nc1cccc(-n2nccn2)c1
In short: as §1

[5] = compound: NC1(c2ccc(-c3nc4ccn5c(=O)[nH]nc5c4cc3-c3ccccc3)cc2)CCC1
In short: as §1

silmitasertib = compound: O=C(O)c1ccc2c(c1)nc(Nc1cccc(Cl)c1)c1ccncc12 [silmitasertib]
In short: as §1

citarinostat = compound: O=C(CCCCCCNC(=O)c1cnc(N(c2ccccc2)c2ccccc2Cl)nc1)NO [citarinostat]
In short: as §1

[6] = compound: c1cc(OCCN2CCCCC2)cc(-c2n[nH]c3ccc(-c4nnc[nH]4)cc23)c1
In short: as §1

vorinostat = compound: O=C(CCCCCCC(=O)Nc1ccccc1)NO [vorinostat]
In short: as §1

Measured: log2 fold change

FZD1 (UniProt Q9UP38)
inactive: [1] -0.195 | [2] 0.111 | entinostat -0.125 | [3] -0.222

GALNT6 (UniProt Q8NCL4)
inactive: [1] 0.023 | [4] -0.005 | [5] -0.242 | entinostat -0.07 | silmitasertib 0.073 | [3] -0.141

GBA2 (UniProt Q9HCG7)
inactive: [1] -0.008 | [4] -0.006 | [5] -0.108 | [2] -0.129 | entinostat -0.023 | citarinostat -0.332 | silmitasertib 0.124 | [3] -0.027 | [6] -0.211

GABPB1 (UniProt Q06547)
inactive: [1] -0.042 | [2] -0.13 | entinostat 0.116

FTSJ1 (UniProt Q9UET6)
inactive: [1] 0.016 | [4] -0.042 | [5] -0.099 | [2] 0.046 | entinostat 0.013 | vorinostat 0.194 | citarinostat 0.017 | silmitasertib -0.035 | [3] 0.008 | [6] 0.047

FUOM (UniProt A2VDF0)
inactive: [1] -0.015 | [5] 0.159 | [2] 0.057 | entinostat -0.11 | citarinostat 0.114 | silmitasertib -0.215 | [6] -0.086

GALM (UniProt Q96C23)
inactive: [1] 0.012 | [4] -0.005 | [5] 0.075 | [2] 0.005 | entinostat -0.005 | vorinostat -0.009 | citarinostat 0.039 | silmitasertib -0.036 | [3] -0.056 | [6] 0

GAS6 isoform 1 (UniProt Q14393)
inactive: [1] -0.122 | entinostat 0.006 | vorinostat 0.012 | citarinostat 0.038 | [3] 0.023 | [6] -0.085

FUT1 (UniProt P19526)
inactive: [1] -0.068 | entinostat -0.095 | [3] 0.055

GDAP2 (UniProt Q9NXN4)
inactive: [1] -0.004 | [4] 0.53 | [5] 0.04 | entinostat -0.264 | citarinostat 0.083 | silmitasertib 0.138 | [3] 0.104 | [6] -0.228

Retrieved one by one from the list above (3):
FTSJ1 (UniProt Q9UET6)
inactive: [1] 0.016 | [4] -0.042 | [5] -0.099 | [2] 0.046 | entinostat 0.013 | vorinostat 0.194 | citarinostat 0.017 | silmitasertib -0.035 | [3] 0.008 | [6] 0.047

FUT1 (UniProt P19526)
inactive: [1] -0.068 | entinostat -0.095 | [3] 0.055

GDAP2 (UniProt Q9NXN4)
inactive: [1] -0.004 | [4] 0.53 | [5] 0.04 | entinostat -0.264 | citarinostat 0.083 | silmitasertib 0.138 | [3] 0.104 | [6] -0.228

Next entries

GEMIN8 (UniProt Q9NWZ8)
inactive: [4] 0.01 | [2] 0.054 | citarinostat 0.174 | [3] 0.223 | [6] -0.354

GALNT3 (UniProt Q14435)
inactive: vorinostat -0.03

GDPGP1 (UniProt Q6ZNW5)
inactive: [4] -0.115 | [5] -0.091 | silmitasertib -0.027

FRMPD3 (UniProt Q5JV73)
inactive: [2] -0.302 | citarinostat 0.02 | [3] -0.331 | [6] 0.036

GBE1 (UniProt Q04446)
inactive: [4] -0.11 | [5] -0.214 | [2] -0.07 | citarinostat 0.09 | silmitasertib 0.031 | [3] -0.049 | [6] -0.057

GEMIN7 (UniProt Q9H840)
inactive: [5] 0.041 | vorinostat -0.019 | silmitasertib 0.145 | [3] -0.064

GFOD1 (UniProt Q9NXC2)
inactive: vorinostat 0 | [3] -0.43

GDI2 (UniProt Q5SX86)
inactive: [3] 0.045

GAL (UniProt P22466)
inactive: [2] -0.126

FRYL isoform 2 (UniProt O94915)
inactive: [4] 0.068 | [2] -0.102 | [3] -0.149

FRMD8 (UniProt Q9BZ67)
inactive: [4] -0.015 | citarinostat 0 | [3] -0.149 | [6] 0.091

G6PC3 (UniProt Q9BUM1)
inactive: [5] -0.019 | [2] -0.229 | citarinostat 0.024 | silmitasertib 0.162 | [6] -0.182

GANAB (UniProt Q14697)
inactive: [5] 0.398 | citarinostat -1.28 | silmitasertib -0.211 | [6] -0.028

GALNT7 (UniProt H0YAH3)
inactive: [2] 0.01 | citarinostat -0.057 | [3] 0.015 | [6] 0.004

GFOD2 (UniProt Q3B7J2)
inactive: [3] -0.283

GAPDH isoform 2 (UniProt P04406)
inactive: [5] -0.189 | silmitasertib 0.071

GAGE1 (UniProt Q13065)
inactive: [5] -0.234 | citarinostat 0.263 | silmitasertib 0.035 | [6] 0.032

GDPD3 (UniProt Q7L5L3)
inactive: [4] -0.203 | [2] 0.073 | vorinostat -0.034 | [3] -0.199

FOXJ2 (UniProt Q9P0K8)
inactive: [2] -0.036

FOXJ3 (UniProt Q9UPW0)
inactive: [4] -0.156 | [5] 0.051 | [2] 0.038 | citarinostat -0.009 | silmitasertib 0.096 | [3] 0.009 | [6] -0.047

GDPD5 (UniProt Q8WTR4)
inactive: citarinostat -0.05 | [3] 0.021 | [6] 0.116

FYTTD1 (UniProt Q96QD9)
inactive: [4] -0.372 | vorinostat -0.024 | citarinostat -0.188 | [3] -0.005 | [6] -0.16

GATC (UniProt O43716)
inactive: [4] 0.058 | [5] -0.069 | [2] 0.152 | vorinostat -0.086 | citarinostat -0.089 | silmitasertib 0.043 | [3] -0.184 | [6] 0.122

GCC1 (UniProt Q96CN9)
inactive: vorinostat -0.038 | [3] 0.184

GFAP isoform 2 (UniProt P14136)
inactive: [5] -0.099 | vorinostat 0.389 | citarinostat -0.113 | silmitasertib -0.123 | [6] 0.219

GGACT (UniProt Q9BVM4)
inactive: [5] -0.159 | citarinostat -0.178 | silmitasertib -0.024 | [6] -0.103

GFM2 (UniProt Q969S9)
inactive: [5] 0.235 | citarinostat -0.061 | silmitasertib 0.02 | [6] -0.158

G0S2 (UniProt P27469)
inactive: [5] 0.102 | silmitasertib -0.141

FUT10 isoform 2 (UniProt Q6P4F1)
inactive: vorinostat 0.083 | [3] 0.158

GABPB1 isoform 3 (UniProt Q06547)
inactive: [5] -0.382 | [2] -0.176 | vorinostat 0.035 | silmitasertib -0.06

FOXRED2 (UniProt Q8IWF2)
inactive: [4] 0.062 | [5] -0.045 | [2] 0.029 | citarinostat 0.011 | silmitasertib 0.214 | [3] -0.009 | [6] -0.105

GCFC2 isoform 3 (UniProt P16383)
inactive: [2] -0.03

GDF15 (UniProt Q99988)
inactive: [4] 0.063 | [5] 0.353 | [2] 0.139 | citarinostat 0.087 | silmitasertib -0.053 | [6] -0.407
